Laboratory results from patent US20180037943.
Protein sequences can lack the tags named with them. For at least one entry, the source does not settle the construct or the ends of the probe.

Columns and labels:
[1] = molecular target: T1, Protelomerase TelN (Escherichia coli bacteriophage N15) (UniProt Q77WP1); assay: enzyme reaction in vitro; conditions: purified recombinant protein, protein details: produced in-house
T1 sequence (limits assumed): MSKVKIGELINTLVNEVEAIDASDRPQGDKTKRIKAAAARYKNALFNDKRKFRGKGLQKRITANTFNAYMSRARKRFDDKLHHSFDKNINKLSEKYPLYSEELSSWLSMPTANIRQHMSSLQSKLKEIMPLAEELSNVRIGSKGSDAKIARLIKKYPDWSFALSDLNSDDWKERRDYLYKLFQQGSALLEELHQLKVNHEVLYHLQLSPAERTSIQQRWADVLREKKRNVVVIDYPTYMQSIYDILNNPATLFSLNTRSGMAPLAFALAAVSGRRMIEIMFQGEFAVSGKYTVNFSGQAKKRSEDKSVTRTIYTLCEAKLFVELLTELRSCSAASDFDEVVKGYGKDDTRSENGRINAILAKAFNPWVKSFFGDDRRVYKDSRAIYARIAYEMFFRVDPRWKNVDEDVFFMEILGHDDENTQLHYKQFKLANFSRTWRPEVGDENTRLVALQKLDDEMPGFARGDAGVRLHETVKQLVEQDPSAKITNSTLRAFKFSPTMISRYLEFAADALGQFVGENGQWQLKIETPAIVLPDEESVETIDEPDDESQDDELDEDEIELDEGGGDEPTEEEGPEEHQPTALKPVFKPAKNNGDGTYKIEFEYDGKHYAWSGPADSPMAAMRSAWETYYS

[2] = tested on: T2, Protelomerase VP58.5 (gp40) (Vibrio parahaemolyticus phage VP58.5); assay: enzyme reaction in vitro; conditions: purified recombinant protein, protein details: produced in-house
T2 sequence: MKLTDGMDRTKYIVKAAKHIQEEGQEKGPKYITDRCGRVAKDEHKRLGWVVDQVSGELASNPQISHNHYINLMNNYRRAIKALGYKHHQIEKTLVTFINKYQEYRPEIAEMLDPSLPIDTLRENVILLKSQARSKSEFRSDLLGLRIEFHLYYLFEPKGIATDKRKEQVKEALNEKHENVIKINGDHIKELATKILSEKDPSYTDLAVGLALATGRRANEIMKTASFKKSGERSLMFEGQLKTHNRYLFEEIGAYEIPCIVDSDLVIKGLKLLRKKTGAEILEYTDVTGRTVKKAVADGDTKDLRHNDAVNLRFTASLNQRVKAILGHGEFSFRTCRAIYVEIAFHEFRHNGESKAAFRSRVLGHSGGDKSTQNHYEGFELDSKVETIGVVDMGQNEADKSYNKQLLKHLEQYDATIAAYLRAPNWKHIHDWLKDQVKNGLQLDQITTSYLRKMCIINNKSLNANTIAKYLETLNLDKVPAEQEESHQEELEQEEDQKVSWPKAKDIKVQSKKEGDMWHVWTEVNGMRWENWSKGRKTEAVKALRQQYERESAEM

TATCAGCACACAATTGCCCATTATACGCGCGTATAATGGGCAATTGTGTGCTGATATGTACACTTAAGTAG (double strand) [PEGS1-derived extension product (TelN site)]
activity on this sequence ([1]; 400 nM TelN, 1x TLG buffer pH 7.4, 30 C 15 min, 1.15 ug/ml product released, closed ends ExoIII resistant, label: 5' biotin-C6): active

TACTAGTCATCTATCAGCACACAATTGCCCATTATACGCGCGTATAATGGACTATTGTGTGCTGATATACTAGGCACCACCTGCAGGAATCTACTAGGCCGCCGCAACCAAACTTGGATCGGTGCACATGTCGAATACTAGGATTCCTGCAGGTGGTGC [DNA-T loopback-extended]
activity on this sequence ([1]; 2.5 uM TelN, IAB plus NEB buffer 4, 37 C 15 min, T5-resistant circular product, folded or branched DNA): active

GGGCGGGGGTCGTTGGGCGGTCAGCCAGGCGGGCCATTTACCGTAAGTTATGTAACGCGGAACTCCATATATGGGCTATGAACTAATGACCCCGTAATTGATTACTACTTAAGTGTACATATCAGCACACAATAGTCCATTATACGCGCGTATAATGGGCAATTGTGTGCTGATATGTACAAGATCTACATGTGAGCTTT (double strand) [3.2-templated extension product (TelN site)]
activity on this sequence ([1]; 0.5 uM TelN, 37 C 15-30 min, released dbDNA T5 exonuclease resistant): active

TATCAGCACACAATTGCCCATTATACGCGCGTATAATGGACTATTGTGTGCTGATATGTACACTTAAGTAGTAATCAAT (double strand) [1.120 end of full sized linear product (TelN site)]
activity on this sequence ([1]; 1 uM TelN (0.5 uM with VP58.5), IAB buffer with Mg, 37 C 15-30 min, hairpin released, label: 5' Alexa Fluor 488): active

TACTAGTCATCAACCTGCACAGGTGTACATATAGTCTAATTAGACTATATGTACACCTGTGCAGGTTTACTAGGCACCACCTGCAGGAATCTACTAGGCCGCCGCAACCAAACTTGGATCGGTGCACATGTCGAATACTAGGATTCCTGCAGGTGGTGC [DNA-V loopback-extended]
activity on this sequence ([2]; 2.5 uM VP58.5, IAB plus NEB buffer 4, 37 C 15 min, T5-resistant circular product, folded or branched DNA): active

AACCTGCACAGGTGTACATATAGTCTAATTAGACTATATGTACACCTGTGCAGGTTACTAGTAGATCTGCTAGCCGCCAG (double strand) [1.107V end of full sized linear product (VP58.5 site)]
activity on this sequence ([2]; 1 uM VP58.5 (0.5 uM with TelN), IAB buffer with Mg, 37 C 15-30 min, hairpin released, label: 5' Alexa Fluor 488): active
